# These are yes or no findings as the source states them, for the method shown. Binding seen in cells or lysates may run through a third protein. Some binding calls cover weakened binding; strength is not graded here.
# By UniProt entry, the sequences of proteins in these tests, tags left out.
# UniProt Q9JIP4: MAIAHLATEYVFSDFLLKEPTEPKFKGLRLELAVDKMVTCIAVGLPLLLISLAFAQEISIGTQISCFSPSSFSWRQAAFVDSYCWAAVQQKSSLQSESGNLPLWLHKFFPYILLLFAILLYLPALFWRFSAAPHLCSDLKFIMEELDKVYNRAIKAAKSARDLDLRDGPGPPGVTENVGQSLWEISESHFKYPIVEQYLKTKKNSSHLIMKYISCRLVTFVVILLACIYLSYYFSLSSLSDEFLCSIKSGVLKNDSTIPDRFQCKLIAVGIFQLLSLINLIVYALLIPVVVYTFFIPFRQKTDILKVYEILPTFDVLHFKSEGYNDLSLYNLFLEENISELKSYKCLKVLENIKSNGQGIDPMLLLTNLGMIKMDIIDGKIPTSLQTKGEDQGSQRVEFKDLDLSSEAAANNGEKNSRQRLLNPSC
# Biological target: T1, P2X7 receptor (mouse (endogenous in RAW264.7)) (UniProt Q9Z1M0)
# T1 sequence: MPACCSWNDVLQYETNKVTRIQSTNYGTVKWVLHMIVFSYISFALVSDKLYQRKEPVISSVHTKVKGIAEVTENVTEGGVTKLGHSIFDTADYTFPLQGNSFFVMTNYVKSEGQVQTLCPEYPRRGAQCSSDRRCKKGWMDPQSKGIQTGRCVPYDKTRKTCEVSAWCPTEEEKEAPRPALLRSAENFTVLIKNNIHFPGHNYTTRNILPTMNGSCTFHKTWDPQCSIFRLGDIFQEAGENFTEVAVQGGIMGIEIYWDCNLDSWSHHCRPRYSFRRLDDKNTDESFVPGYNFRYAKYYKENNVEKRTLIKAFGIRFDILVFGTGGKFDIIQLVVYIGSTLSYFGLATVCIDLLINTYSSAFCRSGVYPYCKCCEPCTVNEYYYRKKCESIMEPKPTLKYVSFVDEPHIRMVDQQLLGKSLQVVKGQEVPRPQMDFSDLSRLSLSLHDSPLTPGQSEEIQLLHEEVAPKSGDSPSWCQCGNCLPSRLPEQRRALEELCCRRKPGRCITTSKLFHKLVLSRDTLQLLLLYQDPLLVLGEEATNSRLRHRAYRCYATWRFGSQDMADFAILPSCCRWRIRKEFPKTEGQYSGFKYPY
# Test: co-IP; RAW cells incubated with Poly (I:C), ATP or Poly (I:C) + 10Panx1 for 30 min; lysate (250 µg protein, 1% NP-40, 150 mM NaCl) precipitated with mouse anti-P2X7R antibody and protein A/G agarose; western blot for Panx1
substance,measurement,value
Pannexin1 (from UniProt Q9JIP4 1-426),binding,binds

# Source: publication PMC11840745
